No constants are given. Whether binding was seen depends on the method and setting. Binding seen in cells or lysates may run through a third protein. Some results given as binding are weak or reduced against the parent protein; the word gives no strength.
Biological target: Ku80, X-ray repair complementing defective repair in Chinese hamster cells 5 (XRCC5) (human (endogenous in H1299, H460 and A549)) (UniProt P13010)
Assay: co-IP; nuclear extracts (300 μg) of H1299, H460 and A549 cells incubated with a rabbit polyclonal anti-Ku80 antibody or nonimmune rabbit IgG overnight at 4°C; protein A/G agarose beads; washed with PBS; Western blot with a CBP antibody

Protein sequences, listed by entry. Tags and fused reporters are not part of them.
UniProt P13010: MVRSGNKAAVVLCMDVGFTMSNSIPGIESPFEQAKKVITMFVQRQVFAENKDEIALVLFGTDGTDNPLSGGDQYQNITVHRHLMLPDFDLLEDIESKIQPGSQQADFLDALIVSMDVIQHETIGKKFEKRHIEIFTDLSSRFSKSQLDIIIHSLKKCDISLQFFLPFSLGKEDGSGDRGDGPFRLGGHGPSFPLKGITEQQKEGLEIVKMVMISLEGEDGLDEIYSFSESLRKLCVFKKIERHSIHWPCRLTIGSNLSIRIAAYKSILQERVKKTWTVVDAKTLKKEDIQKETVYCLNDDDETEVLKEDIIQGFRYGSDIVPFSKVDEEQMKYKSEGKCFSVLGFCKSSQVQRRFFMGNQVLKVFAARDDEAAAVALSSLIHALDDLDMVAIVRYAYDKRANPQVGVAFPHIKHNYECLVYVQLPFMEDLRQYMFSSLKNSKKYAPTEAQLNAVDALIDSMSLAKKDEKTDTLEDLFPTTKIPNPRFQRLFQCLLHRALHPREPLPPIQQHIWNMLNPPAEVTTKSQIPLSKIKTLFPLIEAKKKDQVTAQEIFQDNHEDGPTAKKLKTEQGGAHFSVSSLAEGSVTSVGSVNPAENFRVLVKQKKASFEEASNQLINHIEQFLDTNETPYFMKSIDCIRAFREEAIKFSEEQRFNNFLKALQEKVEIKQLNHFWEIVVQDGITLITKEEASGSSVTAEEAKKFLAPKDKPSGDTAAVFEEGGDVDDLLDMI
UniProt Q92793: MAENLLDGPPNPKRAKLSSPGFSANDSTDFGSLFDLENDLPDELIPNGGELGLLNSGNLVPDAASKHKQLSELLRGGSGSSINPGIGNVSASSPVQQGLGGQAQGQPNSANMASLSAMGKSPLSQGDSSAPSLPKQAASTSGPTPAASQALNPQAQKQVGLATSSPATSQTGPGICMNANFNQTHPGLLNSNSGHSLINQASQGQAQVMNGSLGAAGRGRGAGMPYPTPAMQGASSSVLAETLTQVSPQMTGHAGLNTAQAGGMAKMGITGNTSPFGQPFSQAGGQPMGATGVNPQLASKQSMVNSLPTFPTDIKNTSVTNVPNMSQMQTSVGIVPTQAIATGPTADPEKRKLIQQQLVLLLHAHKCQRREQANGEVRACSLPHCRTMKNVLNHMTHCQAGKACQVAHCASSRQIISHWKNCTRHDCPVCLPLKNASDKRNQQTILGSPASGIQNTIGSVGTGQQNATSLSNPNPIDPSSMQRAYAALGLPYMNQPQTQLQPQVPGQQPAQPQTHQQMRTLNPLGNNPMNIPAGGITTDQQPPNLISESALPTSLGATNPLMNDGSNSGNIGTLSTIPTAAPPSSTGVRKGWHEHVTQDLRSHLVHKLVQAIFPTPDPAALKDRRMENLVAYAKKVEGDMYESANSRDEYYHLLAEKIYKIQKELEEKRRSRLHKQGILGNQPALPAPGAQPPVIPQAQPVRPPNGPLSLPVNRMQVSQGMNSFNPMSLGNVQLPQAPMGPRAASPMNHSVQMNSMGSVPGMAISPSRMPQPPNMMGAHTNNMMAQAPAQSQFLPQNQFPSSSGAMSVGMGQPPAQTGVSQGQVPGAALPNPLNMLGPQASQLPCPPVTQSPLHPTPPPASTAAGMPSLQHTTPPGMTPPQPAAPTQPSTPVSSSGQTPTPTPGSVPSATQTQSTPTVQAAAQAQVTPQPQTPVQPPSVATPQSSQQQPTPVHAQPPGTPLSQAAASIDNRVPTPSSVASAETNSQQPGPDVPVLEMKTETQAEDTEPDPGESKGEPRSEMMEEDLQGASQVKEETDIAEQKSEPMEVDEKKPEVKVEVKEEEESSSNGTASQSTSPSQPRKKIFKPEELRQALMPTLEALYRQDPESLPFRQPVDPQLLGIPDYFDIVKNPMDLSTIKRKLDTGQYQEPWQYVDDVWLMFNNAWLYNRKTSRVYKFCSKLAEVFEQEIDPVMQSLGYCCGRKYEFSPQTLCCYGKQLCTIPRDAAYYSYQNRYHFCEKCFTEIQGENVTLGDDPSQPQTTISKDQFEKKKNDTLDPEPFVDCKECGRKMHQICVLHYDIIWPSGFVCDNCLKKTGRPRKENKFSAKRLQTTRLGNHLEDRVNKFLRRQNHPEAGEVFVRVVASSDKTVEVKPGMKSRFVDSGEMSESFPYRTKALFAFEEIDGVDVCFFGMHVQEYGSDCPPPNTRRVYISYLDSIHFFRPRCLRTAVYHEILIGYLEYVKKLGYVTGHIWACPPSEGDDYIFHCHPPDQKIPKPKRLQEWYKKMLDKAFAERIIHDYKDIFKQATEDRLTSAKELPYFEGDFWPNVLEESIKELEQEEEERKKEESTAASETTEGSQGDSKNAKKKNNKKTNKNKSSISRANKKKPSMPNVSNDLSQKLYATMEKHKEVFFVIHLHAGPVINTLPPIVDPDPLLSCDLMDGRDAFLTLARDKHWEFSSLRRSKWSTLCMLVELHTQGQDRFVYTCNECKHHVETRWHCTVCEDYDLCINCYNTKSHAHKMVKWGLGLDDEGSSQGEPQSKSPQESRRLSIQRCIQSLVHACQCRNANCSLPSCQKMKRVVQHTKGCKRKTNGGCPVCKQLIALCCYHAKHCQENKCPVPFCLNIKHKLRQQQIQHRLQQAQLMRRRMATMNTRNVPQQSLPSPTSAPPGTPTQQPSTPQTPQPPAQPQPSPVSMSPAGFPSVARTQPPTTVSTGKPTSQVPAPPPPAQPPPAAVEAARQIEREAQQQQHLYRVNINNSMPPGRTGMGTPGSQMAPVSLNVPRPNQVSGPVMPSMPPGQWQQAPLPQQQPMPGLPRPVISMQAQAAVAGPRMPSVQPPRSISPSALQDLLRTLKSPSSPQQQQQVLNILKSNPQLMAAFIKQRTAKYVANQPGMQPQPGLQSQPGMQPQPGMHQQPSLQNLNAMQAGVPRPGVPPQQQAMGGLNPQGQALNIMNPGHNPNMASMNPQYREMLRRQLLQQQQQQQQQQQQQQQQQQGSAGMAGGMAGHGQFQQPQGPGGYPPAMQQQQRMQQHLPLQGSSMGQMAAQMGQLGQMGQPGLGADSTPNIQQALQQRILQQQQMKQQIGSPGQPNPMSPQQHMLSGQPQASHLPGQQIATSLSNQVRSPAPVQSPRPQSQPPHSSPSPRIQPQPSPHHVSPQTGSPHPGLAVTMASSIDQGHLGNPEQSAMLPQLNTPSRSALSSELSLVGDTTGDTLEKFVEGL

binding: binds
Substance: CBP, a transcription co-activator (from UniProt Q92793 1-2442)

Source: paper PMC4480734
